# Laboratory results reported in patent publication US9248149B2, “Methods for treating a neoplastic disease in a subject using inorganic selenium-containing compounds” (THE BOARD OF TRUSTEES OF THE LELAND STANFORD JUNIOR …, priority 2003, dated 2016).
# At least one compound was matched to its structure with a doubt left.
# Key:
# [1] = system: normal prostate cells (PZ); assay: Apoptosis as sub-G1 fraction in matched primary cell strains; format: cell-based, human; settings: 48 hours, compared to corresponding prostate cancer derived cells (CA)
# MnSOD [2] = assay: Western blot analysis of MnSOD protein expression, prostate cancer cell strains; format: cell-based, human; settings: prostate cancer cells E-CA-1 and E-CA-2, selenite 48 hours
# LAPC-4 tumors = assay: Selenite and radiation combination therapy in mice with LAPC-4 tumors; format: in vivo; settings: selenite with localized tumor radiation, compared with radiation or selenite alone
# LAPC-4 cells [3] = assay: Clonogenic survival assay; format: cell-based, human; settings: 10 μM or 25 μM selenite for 6 hours prior to 2 Gy, compared to selenite or irradiation alone
# Experimental: Clonogenic Survival Assays. In Examples 1-4 below, LAPC-4 cells were treated with or without selenite for 6 hours prior to receiving 2 Gy of ionizing radiation. In other Examples, LAPC-4 and DU 145 cells were treated with 10 μM selenite for 6 or 12 hours treatment with 2 or 5 Gy of γ-irradiation.
# Following irradiation cells were trypsinized, counted, and seeded in triplicate into 60 mm dishes. At least two dilutions of cells were used for each treatment group. Plated cells were allowed to grow for 14 or 17 days before being stained with 0.25% crystal violet in 75% ethanol. Resulting colonies with greater than 50 cells were scored. The surviving fraction was calculated as the plating efficiency of treated cells divided by the plating efficiency of untreated cells. SF2 is the survival fraction of exponentially growing cells that were irradiated at the clinically relevant dose of 2 Gy. The SF2 enhancement ratio (SF2 ER) is defined here as the SF2 without treatment divided by the SF2 for cells treated with selenite.
# LAPC-4 cells [4] = assay: Western blot analysis of caspase-3 cleavage and Bcl-2 family expression; format: cell-based, human
# MnSOD [5] = assay: Western blot analysis of MnSOD protein expression, normal prostate cell strains; format: cell-based, human; settings: normal cells, selenite 48 hours
# [6] = system: breast and ovarian cancer cell lines; settings: 2 mg/kg, subcutaneous injection; cited from earlier work
# [7] = system: LAPC-4 prostate cancer cells; assay: Apoptosis as sub-G1 fraction by FACS of PI-stained cells; format: cell-based, human; settings: pre-treated with 500 μM BSO for 24 hours, then selenite 48 hours
# Experimental: Cell Cultures and Treatments. LAPC-4 prostate cancer cells (provided by Dr. Charles Sawyers, UCLA) were cultured in phenol red free RPMI 1640 (Life Technologies, Rockville, Md.) supplemented with 10% fetal bovine serum (Gemini Bio-Products, Woodland, Calif.) at 37° C. in a humidified atmosphere with 5% CO2.
# Detection of Apoptosis. Flow cytometry analysis (FACS) analysis of propidium iodide (PI)-stained cells was used to quantify the percentage of apoptotic cells as the fraction of cells with a hypodiploid amount of DNA (Sub-G1). Cells were fixed and permeabilized with 100% ice-cold ethanol at 4° C. overnight. The cells were resuspended in 500 μl of buffer (phosphate buffered saline (PBS), 5 mM EDTA) and incubated with 200 μg/ml RNase A for 30 min at room temperature and then 50 μg/ml PI for 10 min at room temperature. The cell cycle distribution was analyzed using Facstar flow cytometry (Becton-Dickinson, San Jose, Calif.). Cleavage of Caspase-3 as a marker of caspase-mediated apoptosis was also detected by immunoblot analysis (see below).
compound,measurement,setting,value
"O=[Se](O)O [selenite, Sodium selenite]",selenite-induced apoptosis in normal prostate cells,[1],resistant to selenite-induced apoptosis
same,induction of MnSOD protein,MnSOD [2],induced MnSOD protein expression in a dose-dependent fashion
same,radiation-induced tumor growth delay,LAPC-4 tumors,significantly enhanced local radiation-induced tumor growth delay
same,clonogenic survival with radiation,LAPC-4 cells [3],significantly decreased survival
same,Bcl-2:Bax expression ratio,LAPC-4 cells [4]; selenite 48 hours,decreased the Bcl-2:Bax expression ratio
same,cleaved caspase 3,LAPC-4 cells [4]; selenite treated cells,significant increase in cleaved caspase 3
same,induction of MnSOD protein,MnSOD [5],little or no induction of MnSOD protein
same,tumor growth in vivo,[6],inhibit the tumor growth
same,selenite-induced apoptosis after BSO pre-treatment,[7],decreased selenite-induced apoptosis
